These are yes or no findings as the source states them, for the method shown. Binding seen in cells or lysates may run through a third protein.

This experiment concerns the target heterogeneous nuclear ribonucleoprotein K (HNRNPK) (human (endogenous in primary human keratinocytes)), P61978. Kind of experiment: co-IP; endogenous proteins; cells lysed in non-denaturing IP buffer (25 mM Tris-HCl pH 7.4, 150 mM NaCl, 1 mM EDTA, 1% NP-40, 5% glycerol); 3 ug antibody (HNRNPK, DDX6, RNA Pol II, CDK9 or rabbit IgG) on Protein G Dynabeads, lysate overnight at 4 °C, 6 washes, Western blot; for HNRNPK with DDX6 and with RNA Pol II the washed precipitates were split and treated +/- 100 ug/mL RNase A for 1.5 h on ice. Conditions: remark: other sources report otherwise. For orientation: In western blotting, separated proteins are transferred to a membrane and probed.

B1: transcription termination factor, XRN2, Q9H0D6 1-950 (protein)
chain: MGVPAFFRWLSRKYPSIIVNCVEEKPKECNGVKIPVDASKPNPNDVEFDNLYLDMNGIIHPCTHPEDKPAPKNEDEMMVAIFEYIDRLFSIVRPRRLLYMAIDGVAPRAKMNQQRSRRFRASKEGMEAAVEKQRVREEILAKGGFLPPEEIKERFDSNCITPGTEFMDNLAKCLRYYIADRLNNDPGWKNLTVILSDASAPGEGEHKIMDYIRRQRAQPNHDPNTHHCLCGADADLIMLGLATHEPNFTIIREEFKPNKPKPCGLCNQFGHEVKDCEGLPREKKGKHDELADSLPCAEGEFIFLRLNVLREYLERELTMASLPFTFDVERSIDDWVFMCFFVGNDFLPHLPSLEIRENAIDRLVNIYKNVVHKTGGYLTESGYVNLQRVQMIMLAVGEVEDSIFKKRKDDEDSFRRRQKEKRKRMKRDQPAFTPSGILTPHALGSRNSPGSQVASNPRQAAYEMRMQNNSSPSISPNTSFTSDGSPSPLGGIKRKAEDSDSEPEPEDNVRLWEAGWKQRYYKNKFDVDAADEKFRRKVVQSYVEGLCWVLRYYYQGCASWKWYYPFHYAPFASDFEGIADMPSDFEKGTKPFKPLEQLMGVFPAASGNFLPPSWRKLMSDPDSSIIDFYPEDFAIDLNGKKYAWQGVALLPFVDERRLRAALEEVYPDLTPEETRRNSLGGDVLFVGKHHPLHDFILELYQTGSTEPVEVPPELCHGIQGKFSLDEEAILPDQIVCSPVPMLRDLTQNTVVSINFKDPQFAEDYIFKAVMLPGARKPAAVLKPSDWEKSSNGRQWKPQLGFNRDRRPVHLDQAAFRTLGHVMPRGSGTGIYSNAAPPPVTYQGNLYRPLLRGQAQIPKLMSNMRPQDSWRGPPPLFQQQRFDRGVGAEPLLPWNRMLQTQNAAFQPNQYQMLAGPGGYPPRRDDRGGRQGYPREGRKYPLPPPSGRYNWN
In the case of B1, the binding result is given as “no binding”.

The values are drawn from publication PMC6744489.
